Earlier results in US8603806B2, “Materials and methods for cell-based assays” (The Ohio State Universtiy Research Foundation, priority 2005, dated 2013).
At least one structure is not confirmed: it was looked up by name or label, or the drawing left a doubt.

Experiments:
embryonic stem cell [1] = conditions: embryotoxicity test previously reported; cited from earlier work
embryonic stem cell [2] = conditions: embryotoxicity test previously reported; cited from earlier work; remark: listed apart in the source

Row | SMILES | ECVAM IC50 (embryonic stem cell [1]) [µg/mL] | ZEBET IC50 (embryonic stem cell [2]) [µg/mL]
1 | C[C@@H]1C[C@H]2[C@@H]3CCC4=CC(=O)C=C[C@]4(C)[C@@]3(F)[C@@H](O)C[C@]2(C)[C@@]1(O)C(=O)CO [DM, dexamethasone] | 51 | 37
2 | O=C1NC(=O)C(c2ccccc2)(c2ccccc2)N1 [DPH, diphenylhydantoin] | 195 | 102
